In the supplement of paper PMC12889115:
The other results are listed elsewhere or left out. Values are raw readings; no control value is given beside them.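 In the initial screen, polymyxin B was used at a concentration that permeabilizes Salmonella's outer membrane but not its inner membrane. Maximum growth was set by DMSO wells with or without polymyxin B. Since plates varied, data were ranked per plate, and compounds giving the lowest OD600 advanced as hits.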

Tested on: Salmonella enterica serovar Typhimurium SL1344
Test: bacterial growth OD600 after 18 h with compound and polymyxin B; higher = more bacterial growth (less inhibition)
Settings: 50 µM, Mueller-Hinton broth

| Structure (SMILES) | bacterial growth OD600 (polymyxin B 0.75 µg/mL) | bacterial growth OD600 (polymyxin B 1 µg/mL) |
| --- | --- | --- |
| CCS(=O)(=O)Nc1cc(C(=O)NCC(C)Oc2cccnc2)c2c(c1)nc(-c1ccccc1)n2C (stereo not given) | 0.811 |  |
| COCC1CCCCN1C(=O)CCc1nnc(Cc2cc(OC)ccc2OC)o1 (stereo not given) |  | 0.995 |
| O=C(c1ccc(F)c(F)c1)N1CCCC(Nc2ccc(F)cc2)C1 (stereo not given) |  | 0.827 |
| Cc1ccc(C)c(-n2cc(CN3CCC(C(N)=O)CC3)c(-c3ccccc3)n2)c1 |  | 0.97 |
| CC(=O)Nc1ccc(CN2CCc3c([nH]c4ccccc34)C2C(C)(C)C)cc1 (stereo not given) |  | 0.934 |
| O=C1CCCc2occ(C(=O)N3CCOc4ccc(CN5CCN(c6ncccn6)CC5)cc4C3)c21 | 0.819 |  |
| O=C1N(CC2CCC2)CCCC1(O)CNCC1CCCCC1 (stereo not given) |  | 0.841 |
| COc1ccc(NC2CCCN(C(=O)c3ccc4c(c3)C(=O)N(C)C4=O)C2)cc1 (stereo not given) |  | 0.957 |
| CCOC(=O)C1(Cc2ccc(Cl)cc2)CCN(C2CCC2)CC1 |  | 0.977 |
| COc1ccc(C(CC(=O)NCc2ccccn2)c2ccccc2)cc1 (stereo not given) |  | 0.817 |
| CC(C)CS(=O)(=O)c1ncc(CN2CCCCC2CCO)n1Cc1ccccc1 (stereo not given) |  | 0.007 |
| CC(=O)N1CCCC(CNc2ccc(-c3nc(C(C)C)no3)cn2)C1 (stereo not given) | 0.968 |  |
| CN(Cc1ccccc1)Cc1cc(C(=O)N(C)Cc2cnn(C)c2)no1 | 0.833 |  |
| Cc1ccc(CCC(=O)N2CCC(CCC(=O)NC3CC3)CC2)cc1 |  | 0.848 |
| CC(C)N(Cc1nccn1C)c1nc2nonc2nc1NCc1cccs1 | 0.967 |  |
| CCOc1cc(CN2CCN(C(C)C)C(CCO)C2)ccc1O (stereo not given) |  | 1.13 |
| Cc1cccc(C(=O)N2CCC(C3CCN(Cc4cccc(F)c4F)CC3)C2)n1 (stereo not given) | 0.813 |  |
| COc1ccc(CCNc2ncnc3sc(C(=O)N(C)CCc4ccccn4)c(C)c23)cc1OC | 0.853 |  |
| COc1ccc(CN(C)CC2CCN(CCc3cccc(F)c3)CC2)c(OC)c1OC | 0.765 |  |
| CN1C(=O)CC(CC(=O)N2CCCC(C(=O)c3nccn3C)C2)(c2ccc(-c3ccccc3)cc2)C1=O (stereo not given) | -0.016 |  |

Looked up by structure from the list above (two):

| Structure (SMILES) | bacterial growth OD600 (polymyxin B 0.75 µg/mL) | bacterial growth OD600 (polymyxin B 1 µg/mL) |
| --- | --- | --- |
| CCOc1cc(CN2CCN(C(C)C)C(CCO)C2)ccc1O (stereo not given) |  | 1.13 |
| Cc1cccc(C(=O)N2CCC(C3CCN(Cc4cccc(F)c4F)CC3)C2)n1 (stereo not given) | 0.813 |  |
